From paper PMC5780496
No constants are given. Whether binding was seen depends on the method and setting. In cells and extracts the contact can be indirect. Some binding calls cover weakened binding; strength is not graded here. Sequences can lack the tags named with a protein.

T1: HACE1(WT), full length (FL), HA- or myc-tagged (UniProt Q8IYU2)
T1 sequence: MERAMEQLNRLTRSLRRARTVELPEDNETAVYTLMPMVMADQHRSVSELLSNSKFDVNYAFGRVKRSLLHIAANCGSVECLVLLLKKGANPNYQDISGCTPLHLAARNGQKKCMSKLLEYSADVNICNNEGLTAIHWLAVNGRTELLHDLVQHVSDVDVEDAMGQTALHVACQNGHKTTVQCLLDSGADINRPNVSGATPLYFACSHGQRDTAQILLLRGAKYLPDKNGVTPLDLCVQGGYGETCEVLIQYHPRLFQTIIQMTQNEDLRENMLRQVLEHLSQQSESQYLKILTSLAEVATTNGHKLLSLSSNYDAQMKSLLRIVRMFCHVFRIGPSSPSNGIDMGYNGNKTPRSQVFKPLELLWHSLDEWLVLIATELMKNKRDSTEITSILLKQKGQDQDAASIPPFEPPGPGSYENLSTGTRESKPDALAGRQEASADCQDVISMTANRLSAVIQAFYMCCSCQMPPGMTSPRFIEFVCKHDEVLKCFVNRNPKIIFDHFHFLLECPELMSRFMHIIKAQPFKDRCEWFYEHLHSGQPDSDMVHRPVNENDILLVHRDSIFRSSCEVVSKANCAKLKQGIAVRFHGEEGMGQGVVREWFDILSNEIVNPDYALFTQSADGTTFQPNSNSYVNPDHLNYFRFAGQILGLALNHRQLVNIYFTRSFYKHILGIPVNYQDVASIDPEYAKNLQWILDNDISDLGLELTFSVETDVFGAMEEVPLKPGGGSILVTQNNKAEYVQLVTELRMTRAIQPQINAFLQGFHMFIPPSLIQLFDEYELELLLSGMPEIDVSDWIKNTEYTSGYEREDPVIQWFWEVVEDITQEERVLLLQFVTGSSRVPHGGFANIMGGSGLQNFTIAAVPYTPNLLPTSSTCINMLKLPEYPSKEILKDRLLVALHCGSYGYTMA


Legend:
[1] = target: T1, HACE1(WT), full length (FL), HA- or myc-tagged; assay: co-IP; MCF12A cells 20 hours post-transfection, lysed in 50 mM Tris-HCl pH 7.5, 150 mM NaCl, 1% Triton-X100, 0.27 M sucrose; anti-HA or anti-Flag affinity gel, 2 hours at 4 °C; immunoblot; in some samples active PAK1(K141A) co-expressed
[2] = target: HACE1(S385A), phospho-resistant mutant, HA- or myc-tagged (UniProt Q8IYU2); assay: as above

binding [1] | binding [2] | Binder
binds weakly |  | HACE1 HECT domain alone (domain or fragment, UniProt Q8IYU2 574-909) NCAKLKQGIAVRFHGEEGMGQGVVREWFDILSNEIVNPDYALFTQSADGTTFQPNSNSYVNPDHLNYFRFAGQILGLALNHRQLVNIYFTRSFYKHILGIPVNYQDVASIDPEYAKNLQWILDNDISDLGLELTFSVETDVFGAMEEVPLKPGGGSILVTQNNKAEYVQLVTELRMTRAIQPQINAFLQGFHMFIPPSLIQLFDEYELELLLSGMPEIDVSDWIKNTEYTSGYEREDPVIQWFWEVVEDITQEERVLLLQFVTGSSRVPHGGFANIMGGSGLQNFTIAAVPYTPNLLPTSSTCINMLKLPEYPSKEILKDRLLVALHCGSYGYTMA
 | binds | HACE1(S385A), phospho-resistant mutant, HA- or myc-tagged (enzyme, UniProt Q8IYU2 1-909) MERAMEQLNRLTRSLRRARTVELPEDNETAVYTLMPMVMADQHRSVSELLSNSKFDVNYAFGRVKRSLLHIAANCGSVECLVLLLKKGANPNYQDISGCTPLHLAARNGQKKCMSKLLEYSADVNICNNEGLTAIHWLAVNGRTELLHDLVQHVSDVDVEDAMGQTALHVACQNGHKTTVQCLLDSGADINRPNVSGATPLYFACSHGQRDTAQILLLRGAKYLPDKNGVTPLDLCVQGGYGETCEVLIQYHPRLFQTIIQMTQNEDLRENMLRQVLEHLSQQSESQYLKILTSLAEVATTNGHKLLSLSSNYDAQMKSLLRIVRMFCHVFRIGPSSPSNGIDMGYNGNKTPRSQVFKPLELLWHSLDEWLVLIATELMKNKRDATEITSILLKQKGQDQDAASIPPFEPPGPGSYENLSTGTRESKPDALAGRQEASADCQDVISMTANRLSAVIQAFYMCCSCQMPPGMTSPRFIEFVCKHDEVLKCFVNRNPKIIFDHFHFLLECPELMSRFMHIIKAQPFKDRCEWFYEHLHSGQPDSDMVHRPVNENDILLVHRDSIFRSSCEVVSKANCAKLKQGIAVRFHGEEGMGQGVVREWFDILSNEIVNPDYALFTQSADGTTFQPNSNSYVNPDHLNYFRFAGQILGLALNHRQLVNIYFTRSFYKHILGIPVNYQDVASIDPEYAKNLQWILDNDISDLGLELTFSVETDVFGAMEEVPLKPGGGSILVTQNNKAEYVQLVTELRMTRAIQPQINAFLQGFHMFIPPSLIQLFDEYELELLLSGMPEIDVSDWIKNTEYTSGYEREDPVIQWFWEVVEDITQEERVLLLQFVTGSSRVPHGGFANIMGGSGLQNFTIAAVPYTPNLLPTSSTCINMLKLPEYPSKEILKDRLLVALHCGSYGYTMA
